Results as given in PubChem BioAssay AID504327 (National Center for Advancing Translational Sciences (NCATS), 2011).
The campaign covered roughly 390,000 compounds. About 820 (0.21%) were called active. Inconclusive means that the source gave no clear call. Such entries were picked first, then a sample of the others. The call rests on the fitted dose curve; in most records, active means well fitted inhibition curve with a large enough effect; inconclusive means small, poorly fitted or top-dose-only effect, or another doubt; inactive means no such curve, though single readings can be large or run the other way. Where the call is inconclusive, the potency comes from a doubtful curve fit. More than one record can exist for a structure, and the calls need not agree.

Sequences of proteins named here, by UniProt entry; tags and fusion partners are left off.
UniProt Q92830, whole entry, looked up: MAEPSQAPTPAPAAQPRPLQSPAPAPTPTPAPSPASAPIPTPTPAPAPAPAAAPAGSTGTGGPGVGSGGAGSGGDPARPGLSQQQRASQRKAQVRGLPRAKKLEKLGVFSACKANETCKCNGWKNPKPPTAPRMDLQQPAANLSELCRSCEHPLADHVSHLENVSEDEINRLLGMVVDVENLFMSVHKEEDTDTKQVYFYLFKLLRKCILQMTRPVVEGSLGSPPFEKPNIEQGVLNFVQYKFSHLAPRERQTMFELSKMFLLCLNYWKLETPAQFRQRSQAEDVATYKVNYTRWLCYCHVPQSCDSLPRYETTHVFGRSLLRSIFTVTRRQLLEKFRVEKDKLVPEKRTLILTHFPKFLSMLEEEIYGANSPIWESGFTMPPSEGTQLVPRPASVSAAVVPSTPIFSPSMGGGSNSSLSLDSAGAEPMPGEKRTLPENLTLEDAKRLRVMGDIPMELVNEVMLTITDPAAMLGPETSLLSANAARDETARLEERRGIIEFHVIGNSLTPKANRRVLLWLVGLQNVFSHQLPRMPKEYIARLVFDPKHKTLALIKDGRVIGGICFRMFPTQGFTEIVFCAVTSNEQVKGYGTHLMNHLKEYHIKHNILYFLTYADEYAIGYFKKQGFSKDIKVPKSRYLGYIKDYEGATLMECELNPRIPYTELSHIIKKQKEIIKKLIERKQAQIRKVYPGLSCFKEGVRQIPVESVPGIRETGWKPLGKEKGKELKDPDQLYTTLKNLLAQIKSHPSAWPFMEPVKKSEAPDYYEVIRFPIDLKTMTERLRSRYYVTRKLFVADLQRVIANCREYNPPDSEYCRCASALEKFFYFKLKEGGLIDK

target: Histone acetyltransferase KAT2A (Homo sapiens) (UniProt Q92830); assay: qHTS Assay for Inhibitors of GCN5L2; conditions: GCN5L2 HAT assay, ThioGlo1 CoA-SH fluorescence; activity change, negative = inhibition: at 58.9 µM (top of the series) unless noted
In short: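 Titration-based screen in which CoA formation is detected via maleimide probe ThioGlo1 (50uM) turning fluorescent on thiol reaction; substrates H3(1-25) 75uM and acetyl-CoA 70uM, GCN5L2 20nM, 20 min incubation at room temperature.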
On the % scale 0 is the no-effect control and ±100 the full control effect; potency means the concentration at half of the fitted maximal effect.

Structure (SMILES)	Potency	activity change, negative = inhibition
O=C1C=CC(=O)N1c1ccc(O)cc1	inconclusive: 25.1 µM [inhibitor, partial curve]	–
O=C(O)CCN1C(=O)C2CCCCC2C1=O (stereo not drawn)	inconclusive: 28.2 µM [inhibitor, single point]	–
Cc1ccc(S(=O)(=O)N2[C@@H](c3ccc(C(C)(C)C)cc3)C(C(=O)O)=CC[C@H]2c2ccc(C(C)C)cc2)cc1	active: 14.1 µM	–
C(=C\c1ccccc1)/C=N/Nc1nc2ccccc2[nH]1	–	inactive: -9.95%
O=C1OCCC1Sc1nnc(-c2ccc(O)cc2)o1 (stereo not drawn)	–	inactive: -3.36%
CCOc1cc(-c2nc3ccccn3c2NCC2CCCO2)ccc1O (stereo not drawn)	inconclusive: 14.1 µM [inhibitor, partial curve]	–
CC(=O)N1c2ccc(S(=O)(=O)NCC3CCC(C(=O)NCCC(C)C)CC3)cc2CC1C (stereo not drawn)	–	inactive: -9.6%
COC(=O)N/N=C/c1cc(N=Nc2ccccc2)ccc1O	–	inactive: -15.3%
CCNc1ncc2nc(-c3ccccc3)c(=O)n(C[C@H]3CCCO3)c2n1	inconclusive: 3.55 µM [inhibitor, full curve, poor fit]	–
O=C(CCCc1nc(-c2ccccc2Cl)no1)NCc1cccnc1	–	inactive: -6.6%
CC(C)[C@H](NC(=O)c1ccccc1F)C(=O)OCCN1C(=O)c2ccccc2C1=O	–	inactive: -3.68%
COc1ccccc1N(C)S(=O)(=O)c1ccc(C(=O)OCC(=O)N(C)c2ccccc2)cc1	–	inactive: -1.05%
CCOC(=O)N1CCN(S(=O)(=O)c2ccc3[nH]cc(C(=O)O)c(=O)c3c2)CC1	inconclusive: 0.447 µM [inhibitor, partial curve, poor fit]	–
CN1c2ccccc2C(O)=C(C(=S)Nc2ccc(F)c(Cl)c2)S1(=O)=O	–	inactive: -7.38%
CCOC(=O)c1ccc(CN(Cc2ccccc2)S(=O)(=O)c2ccc(C)cc2)cc1	–	inactive: -8.51%
CC1=C(c2ccc(F)cc2)[N+](=O)C(C)(C)N1[O-]	–	inactive: -4.28%
COc1cc(Br)c(CNc2cc(C)ccc2C)cc1OC	–	inactive: -6.37%
CCOC(=O)C1=C(CC)OC(N)=C(C#N)C1c1ccc(NC(C)=O)cc1 (stereo not drawn)	–	inactive: 0.624%
CC(C(=O)Nc1ccc2c(c1)OCO2)N(c1ccc(Cl)cc1)S(C)(=O)=O (stereo not drawn)	inconclusive: 31.6 µM [inhibitor, single point]	–
COc1ccc(-n2c(=O)cnc3cnc(Oc4ccccc4)nc32)cc1	–	inactive: -14.9%
COc1ccc(S(=O)(=O)NCCC(=O)NCc2ccc(F)cc2)cc1	–	inactive: 2.83%
O=c1c2ccccc2[nH]c2ccc(O)cc12	–	inactive: -14.8%
C=CCn1c(SCC(=O)Nc2ccc3c(c2)CCC3)nnc1-c1cccs1	inconclusive: 28.2 µM [inhibitor, single point]	–
c1cnc(NC2CCCCCC2)nc1	inconclusive: 1 µM [inhibitor, single point]	–
O=C(NCCCN1CCCCC1)c1ccc(CS(=O)c2ccc(Cl)cc2)o1 (stereo not drawn)	inconclusive: 0.112 µM [inhibitor, full curve, poor fit]	–

Structure (SMILES)	Potency	activity change, negative = inhibition
O=C(NCc1cc([N+](=O)[O-])ccc1O)c1cccnc1Sc1ccccc1Cl	inconclusive: 3.55 µM [inhibitor, full curve, poor fit]	–
Cc1ccc2c(c1)N(CCC(=O)NCc1cccs1)C(=O)C(C)O2 (stereo not drawn)	inconclusive: 6.31 µM [inhibitor, single point]	–
CCSC(C)CC1C/C(=N/O)c2c(C)noc2C1 (stereo not drawn)	inconclusive: 0.631 µM [inhibitor, single point]	–
CCN(c1ccccc1)S(=O)(=O)c1nnc(NC(=O)COc2ccc(OC)cc2)s1	–	inactive: -3.47%
CCN1CCN(S(=O)(=O)c2ccc3c4c(cccc24)C(=O)N3CC)CC1	inconclusive: 39.8 µM [inhibitor, single point]	–
Cc1cccc(N2C(=O)CC(Sc3nccc(C)n3)C2=O)c1 (stereo not drawn)	–	inactive: -6.13%
Cc1ccc(C2=CC(=O)C[C@H](c3ccc4c(c3)OCO4)C2)cc1	inconclusive: 25.1 µM [inhibitor, single point]	–
Cc1ccc(CN=C(N)Nc2nc(C)cc(C)n2)cc1	–	inactive: -6.09%
Cc1cc(C(=O)Cn2c(CO)nc3ccccc32)c(C)n1C	inconclusive: 39.8 µM [inhibitor, single point]	–
CCOC(=O)c1c(C)[nH]c(C)c1S(=O)(=O)N(C)CC(=O)Nc1cccc(C)c1	inconclusive: 0.355 µM [inhibitor, partial curve, poor fit]	–
COC(=O)C1(S(=O)(=O)c2ccc(C)cc2)CCOCC1	inconclusive: 39.8 µM [inhibitor, single point]	–
C=CCNS(=O)(=O)c1ccc(OCC(=O)OCC)cc1	inconclusive: 39.8 µM [inhibitor, single point]	–
CSCCC(=O)NC1CC(C)(C)Cc2c1cnn2-c1ccccc1C (stereo not drawn)	inconclusive: 10 µM [inhibitor, partial curve, poor fit]	–
Cn1cnnc1SC/C(O)=C(\C#N)c1nc2ccccc2[nH]1	–	inactive: -1.67%
O=c1c2ccccc2ncn1-c1ccccc1C(F)(F)F	inconclusive: 39.8 µM [inhibitor, single point]	–
CC1=NN(c2ccc(C(=O)O)cc2)C(=O)/C1=C\c1ccc(OC(=O)c2cccs2)cc1	inconclusive: 39.8 µM [inhibitor, single point]	–
Cn1nc(C(=O)Nc2cccc(C(F)(F)F)c2)c2ccccc2c1=O	inconclusive: 0.631 µM [inhibitor, single point]	–
COc1ccccc1NC(=O)c1sc2nc(-c3ccco3)ccc2c1N	inconclusive: 3.55 µM [inhibitor, partial curve]	–
Cc1ccc(C)c(NS(=O)(=O)c2cc(C(=O)Nc3ccccc3-c3ccccc3)ccc2C)c1	–	inactive: -12.2%
O=C(CNC(c1ccccc1)c1ccccc1)Nc1ccccc1-c1ccccc1	inconclusive: 39.8 µM [inhibitor, single point]	–
COc1cccc(C2C(C(=O)c3cccs3)=C(O)C(=O)N2CCN2CCOCC2)c1OC (stereo not drawn)	–	inactive: -4.7%
Cc1cc(C)n(-c2nc3ccccc3c(=O)n2OCc2ccc(Cl)cc2)n1	inconclusive: 0.794 µM [inhibitor, single point]	–
CCN(CC)c1ccc(NS(=O)(=O)c2cn(C)c(=O)n(C)c2=O)c(C)c1	inconclusive: 1 µM [inhibitor, single point]	–
COc1ccc(-c2nc3cnc(N4CCNCC4)nc3n(C)c2=O)cc1	inconclusive: 39.8 µM [inhibitor, single point]	–
O=C1COc2ccc(C(=O)CSc3nnc(Cc4cccs4)n3-c3ccc(Cl)cc3)cc2N1	inconclusive: 6.31 µM [inhibitor, single point]	–

Structure (SMILES)	Potency	activity change, negative = inhibition
CN1CCN(c2c(F)cc3c(=O)c(C(=O)O)cn4c3c2OCN4C)CC1	inconclusive: 31.6 µM [inhibitor, partial curve]	–
O=C1c2nc3cc(-c4ccco4)[nH]n3c(=O)c2CN1Cc1ccccc1	inconclusive: 39.8 µM [inhibitor, single point]	–
CCN(CC)c1ccc(/C=C/c2ccc3ccc(OC)cc3[n+]2CC)cc1	–	inactive: -3.73%
c1cncc(CNc2ncnc3ccc(-c4ccoc4)cc23)c1	active: 28.2 µM	–
CC(C)(C)CC(C)(C)c1ccc(O)c(Cc2ccc(Cl)cc2Cl)c1	inconclusive: 17.8 µM [inhibitor, partial curve]	–
CCNc1ncc2nc(C)c(=O)n(CCC#N)c2n1	inconclusive: 12.6 µM [inhibitor, partial curve]	–
CC1CCC/C=C/C(=O)c2c(O)cc(O)cc2CC(=O)O1 (stereo not drawn)	inconclusive: 39.8 µM [inhibitor, single point]	–
COc1ccc(OC)c(Nc2nc(=O)c3cccnc3s2)c1	inconclusive: 31.6 µM [inhibitor, single point]	–
CCOC(=O)c1ccccc1NC(=O)NCc1c(-n2cccc2)sc2c1CCCC2	–	inactive: -5.01%
O=[N+]([O-])c1ccc(N2CCCC2)cc1NCc1ccccc1	inconclusive: 39.8 µM [inhibitor, single point]	–
CC(=O)Nc1ccc(C2=NN(c3ccccc3)C(c3cccs3)C2)cc1 (stereo not drawn)	inconclusive: 31.6 µM [inhibitor, single point]	–
CCOC(=O)C1=C(CSc2nc(-c3ccccc3)ccc2C#N)OC(N)=C(C#N)C1c1ccc(OC)cc1 (stereo not drawn)	–	inactive: -6.54%
O=C(CCl)N(Cc1ccccc1)c1ccccc1	–	inactive: -6.67%
CC1(CC(=O)N/N=C/c2cc(Br)c(O)cc2O)OCCO1	inconclusive: 0.501 µM [inhibitor, partial curve, poor fit]	–
O=[N+]([O-])c1cccc(S(=O)(=O)Nc2nc3ccccc3nc2Nc2cccc(S(=O)(=O)N3CCCCC3)c2)c1	inconclusive: 12.6 µM [inhibitor, partial curve]	–
CCN(CC)C(=O)Cn1c(=O)n(-c2ccccc2)c(=O)c2sccc21	inconclusive: 7.08 µM [inhibitor, single point]	–
COC1=C/C(=C/c2c(N)n3nc(CC(=O)N4CCCC4)sc3nc2=O)C=CC1=O	–	inactive: -8.34%
CC(C(=O)NC1CCCc2ccccc21)N1CCN(c2ccc(F)cc2)CC1 (stereo not drawn)	–	inactive: -0.0761%
Cc1ccc(/C=C/C(=O)NC(=S)N2CCN(c3ccc(F)cc3)CC2)cc1	inconclusive: 0.501 µM [inhibitor, partial curve, poor fit]	–
Cc1ccc(NC(=O)[C@@H](NC(=O)c2cccc(S(=O)(=O)N3CCOCC3)c2)C(C)C)cc1C	–	inactive: -6.66%
Oc1ccc(Cn2ccnc2)c2cccnc12	inconclusive: 39.8 µM [inhibitor, single point]	–
O=C(c1noc2c1CCCCC2)N1CCN(c2cccc(Cl)c2)CC1	–	inactive: -2.47%
Cc1ccc2c(c1)SC1=NC(c3ccccc3)(C(F)(F)F)NC(=O)N12 (stereo not drawn)	inconclusive: 5.01 µM [inhibitor, single point]	–

Filtered by structure: the compounds so far containing a cyano group.
Structure (SMILES)	Potency	activity change, negative = inhibition
CCOC(=O)C1=C(CC)OC(N)=C(C#N)C1c1ccc(NC(C)=O)cc1 (stereo not drawn)	–	inactive: 0.624%
Cn1cnnc1SC/C(O)=C(\C#N)c1nc2ccccc2[nH]1	–	inactive: -1.67%
CCNc1ncc2nc(C)c(=O)n(CCC#N)c2n1	inconclusive: 12.6 µM [inhibitor, partial curve]	–
CCOC(=O)C1=C(CSc2nc(-c3ccccc3)ccc2C#N)OC(N)=C(C#N)C1c1ccc(OC)cc1 (stereo not drawn)	–	inactive: -6.54%
